# Patent publication US20080227725A1, “Cosmetic or pharmaceutical composition comprising peptides, uses and treatment processes” (priority 2002, published 2008)
# At least one peptide structure holds a part that was inferred or is arguable (an end, a ring closure or a residue). Where a SMILES comes first, the peptide text is derived from it.
# Assays:
# Assay type in all cases: cell-based
# [1] = system: collagen III; assay: Collagen III synthesis by fibroblasts, immunofluorescence; settings: human fibroblasts, 10^−6 M, incubated 24 hours; increase seen after 12 hours
# [2] = system: 3T3-L1; assay: Intracellular ATP, ATP Bioluminescence Assay Kit HS II, on differentiated 3T3-L1 adipocytes; settings: 1% of a 50 ppm solution
# [3] = system: adipocytes; assay: Glycerol released by the adipocytes, HPLC analysis and enzymatic assay
# [4] = system: 3T3-L1 preadipocyte cell line; assay: Lipid vacuoles in adipocytes, Oil Red coloring and microscopic observation; settings: mature 3T3-L1 adipocytes, 1% solution of a 50 ppm solution, 30 minutes, 3 hours and 6 hours
# [5] = system: fibronectin; assay: Fibronectin synthesis by fibroblasts, immunofluorescence; settings: human fibroblasts, 10^−6 M, incubated 24 hours; increase seen after 12 hours
# [6] = system: collagen I; assay: Collagen I synthesis by fibroblasts, immunofluorescence; settings: human fibroblasts, 10^−6 M, incubated 24 hours; increase seen after 12 hours
# [7] = system: keratin; assay: Keratin synthesis by HaCat keratinocytes, immunofluorescence with anti-keratin Pan cK antibodies; settings: HaCat human keratinocytes, at 24 hours
compound,measurement,setting,value
N=C(N)NCCC[C@H](N)C(=O)NCC(=O)N[C@@H](CO)C(=O)O [Arg-Gly-Ser] (H-Arg-Gly-Ser-OH),collagen III synthesis (intensity of fluorescence) vs untreated cells,[1],increase
same,percent increase of luminescence (intracellular ATP) vs untreated cells,[2]; t = 3 heures,+16%
same,percent increase of luminescence (intracellular ATP) vs untreated cells,[2]; t = 5 min,+1%
same,percent increase of luminescence (intracellular ATP) vs untreated cells,[2]; t = 15 min,+30%
same,quantity of glycerol released by the adipocytes in the surrounding medium (confirmation of lipolysis),[3],confirmed
same,intra-adipocyte vesicle content vs control adipocytes,[4],clearly reduced
same,synthesis of fibronectin (intensity of fluorescence) vs untreated cells,[5],increase
same,collagen I synthesis (intensity of fluorescence) vs untreated cells,[6],increase
same,keratin synthesis (fluorescence intensity),[7],increasing keratin synthesis
